Measured values as given in publication doi:10.1101/2025.10.26.684595.
Results are given in words; binding and its absence hold for the method and conditions named. For some assays here: In cells and extracts the contact can be indirect. Some binding calls cover weakened binding; strength is not graded here. Sequences can lack the tags named with a protein.

By UniProt entry, the sequences of proteins in these tests, tags left out.
UniProt P23769: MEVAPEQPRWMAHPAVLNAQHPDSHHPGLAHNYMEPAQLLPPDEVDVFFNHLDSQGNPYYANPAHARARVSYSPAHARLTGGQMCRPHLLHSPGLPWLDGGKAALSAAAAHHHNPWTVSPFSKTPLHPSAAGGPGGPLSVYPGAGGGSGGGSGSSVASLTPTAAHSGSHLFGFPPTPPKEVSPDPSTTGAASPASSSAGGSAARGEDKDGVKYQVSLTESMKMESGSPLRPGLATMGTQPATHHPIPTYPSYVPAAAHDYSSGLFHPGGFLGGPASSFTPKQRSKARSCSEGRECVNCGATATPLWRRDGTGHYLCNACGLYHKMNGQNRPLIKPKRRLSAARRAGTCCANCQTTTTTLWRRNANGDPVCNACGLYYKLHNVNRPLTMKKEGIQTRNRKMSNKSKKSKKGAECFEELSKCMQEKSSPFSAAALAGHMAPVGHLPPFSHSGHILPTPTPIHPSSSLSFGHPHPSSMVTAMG
UniProt Q92508: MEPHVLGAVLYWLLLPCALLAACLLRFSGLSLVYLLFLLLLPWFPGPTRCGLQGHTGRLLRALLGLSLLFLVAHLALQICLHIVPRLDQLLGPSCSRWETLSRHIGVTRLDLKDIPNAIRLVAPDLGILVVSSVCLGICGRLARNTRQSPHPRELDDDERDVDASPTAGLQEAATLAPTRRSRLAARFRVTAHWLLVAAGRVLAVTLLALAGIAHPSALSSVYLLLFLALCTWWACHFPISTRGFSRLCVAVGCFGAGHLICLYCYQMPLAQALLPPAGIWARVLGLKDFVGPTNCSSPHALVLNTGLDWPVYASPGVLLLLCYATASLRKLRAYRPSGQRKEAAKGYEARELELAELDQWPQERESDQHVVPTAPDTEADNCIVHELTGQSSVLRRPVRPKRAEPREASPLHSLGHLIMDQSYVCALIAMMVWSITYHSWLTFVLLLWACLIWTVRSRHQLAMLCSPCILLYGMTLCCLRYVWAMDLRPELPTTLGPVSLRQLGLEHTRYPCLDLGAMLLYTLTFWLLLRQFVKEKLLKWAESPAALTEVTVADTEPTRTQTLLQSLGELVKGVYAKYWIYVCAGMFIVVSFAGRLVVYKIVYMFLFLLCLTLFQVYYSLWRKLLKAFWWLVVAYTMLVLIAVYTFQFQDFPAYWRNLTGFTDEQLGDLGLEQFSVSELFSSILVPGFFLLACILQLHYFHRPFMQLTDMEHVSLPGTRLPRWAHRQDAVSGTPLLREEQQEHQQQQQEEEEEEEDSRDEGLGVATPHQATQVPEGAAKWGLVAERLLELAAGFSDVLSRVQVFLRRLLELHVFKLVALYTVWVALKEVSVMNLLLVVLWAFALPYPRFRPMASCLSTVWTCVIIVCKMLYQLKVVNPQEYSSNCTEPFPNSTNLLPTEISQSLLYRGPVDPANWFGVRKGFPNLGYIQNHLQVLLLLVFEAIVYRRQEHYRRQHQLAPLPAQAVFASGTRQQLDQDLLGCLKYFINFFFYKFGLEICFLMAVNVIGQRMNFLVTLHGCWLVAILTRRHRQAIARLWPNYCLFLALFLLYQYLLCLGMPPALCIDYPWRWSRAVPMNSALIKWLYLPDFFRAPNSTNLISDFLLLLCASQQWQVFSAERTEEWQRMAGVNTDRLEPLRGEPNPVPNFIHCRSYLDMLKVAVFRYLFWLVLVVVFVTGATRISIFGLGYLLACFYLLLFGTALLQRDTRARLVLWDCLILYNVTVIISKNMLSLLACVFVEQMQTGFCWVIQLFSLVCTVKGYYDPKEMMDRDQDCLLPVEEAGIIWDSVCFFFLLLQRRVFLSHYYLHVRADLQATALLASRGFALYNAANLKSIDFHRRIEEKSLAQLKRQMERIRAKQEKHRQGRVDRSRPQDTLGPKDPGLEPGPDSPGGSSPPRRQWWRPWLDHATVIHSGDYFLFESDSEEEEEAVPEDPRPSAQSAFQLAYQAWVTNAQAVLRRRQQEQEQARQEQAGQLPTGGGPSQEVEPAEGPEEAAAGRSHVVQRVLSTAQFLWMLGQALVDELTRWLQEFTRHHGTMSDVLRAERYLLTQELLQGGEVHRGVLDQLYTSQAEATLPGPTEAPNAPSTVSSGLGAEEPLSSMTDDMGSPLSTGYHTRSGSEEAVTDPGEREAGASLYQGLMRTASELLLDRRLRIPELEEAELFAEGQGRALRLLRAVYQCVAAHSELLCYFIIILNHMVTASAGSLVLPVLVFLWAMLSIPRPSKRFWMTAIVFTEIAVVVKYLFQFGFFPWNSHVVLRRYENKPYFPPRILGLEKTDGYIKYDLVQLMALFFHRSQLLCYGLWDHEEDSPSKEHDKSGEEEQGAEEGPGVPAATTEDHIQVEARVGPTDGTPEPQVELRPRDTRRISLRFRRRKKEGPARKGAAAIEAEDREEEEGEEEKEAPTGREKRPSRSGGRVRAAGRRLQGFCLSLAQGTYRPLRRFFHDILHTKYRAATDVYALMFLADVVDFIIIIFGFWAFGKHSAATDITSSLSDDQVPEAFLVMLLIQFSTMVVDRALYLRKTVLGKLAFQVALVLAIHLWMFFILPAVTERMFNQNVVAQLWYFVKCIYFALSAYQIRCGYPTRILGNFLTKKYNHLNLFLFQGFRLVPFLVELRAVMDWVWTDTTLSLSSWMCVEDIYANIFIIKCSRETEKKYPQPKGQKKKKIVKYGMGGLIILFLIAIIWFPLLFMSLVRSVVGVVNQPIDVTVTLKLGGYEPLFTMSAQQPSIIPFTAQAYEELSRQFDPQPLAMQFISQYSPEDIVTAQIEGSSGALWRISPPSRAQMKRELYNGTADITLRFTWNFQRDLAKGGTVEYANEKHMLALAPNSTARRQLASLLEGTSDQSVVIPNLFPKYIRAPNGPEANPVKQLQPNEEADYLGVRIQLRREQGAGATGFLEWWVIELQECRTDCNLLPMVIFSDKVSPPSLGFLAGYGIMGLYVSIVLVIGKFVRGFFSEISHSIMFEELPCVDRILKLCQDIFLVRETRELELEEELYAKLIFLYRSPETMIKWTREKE

Columns and labels:
GATA2 = GATA2 (UniProt P23769); assay: co-IP
human PIEZO1 (human) [1] = biological target: human PIEZO1 (human) (UniProt Q92508); assay: co-IP
human PIEZO1 (human) [2] = biological target: human PIEZO1 (human) (UniProt Q92508); assay: native gel or EMSA

B1: human MDFIC2 with an N-terminal haemagluttinin (HA) tag (protein, UniProt A0A1B0GVS7 1-189)
chain: MSETELEKIKVRTAEHLENDKNNISWLKEDTQLTNAKHADEKPINAIVINSVSDFNITDGPAKENPNEKKLSESSTSLSSLEECQTTFSYLQTDTSVHHRDTDEECASLILACLFCQFWDCLLMLPGTCETVCTKMCCPSRRYHHTSDENHSRNDCSCNCDMDCSLFESCHETSECLELAMEISEICYR
modifications: palmitoylation on at least 2 cysteines (PEG-maleimide mass-tagging assay)
GATA2
  binding: binds
Human PIEZO1 (human) [1]
  binding: binds
Human PIEZO1 (human) [2]
  binding: binds

B2: MDFI (GATA2 co-immunoprecipitation) (protein, UniProt Q99750 1-246)
chain: MYQVSGQRPSGCDAPYGAPSAAPGPAQTLSLLPGLEVVTGSTHPAEAAPEEGSLEEAATPMPQGNGPGIPQGLDSTDLDVPTEAVTCQPQGNPLGCTPLLPNDSGHPSELGGTRRAGNGALGGPKAHRKLQTHPSLASQGSKKSKSSSKSTTSQIPLQAQEDCCVHCILSCLFCEFLTLCNIVLDCATCGSCSSEDSCLCCCCCGSGECADCDLPCDLDCGILDACCESADCLEICMECCGLCFSS
GATA2
  binding: binds

B3: MDFIC (GATA2 co-immunoprecipitation) (protein, UniProt Q9P1T7 1-246)
chain: MSGAGEALAPGPVGPQRVAEAGGGQLGSTAQGKCDKDNTEKDITQATNSHFTHGEMQDQSIWGNPSDGELIRTQPQRLPQLQTSAQVPSGEEIGKIKNGHTGLSNGNGIHHGAKHGSADNRKLSAPVSQKMHRKIQSSLSVNSDISKKSKVNAVFSQKTGSSPEDCCVHCILACLFCEFLTLCNIVLGQASCGICTSEACCCCCGDEMGDDCNCPCDMDCGIMDACCESSDCLEICMECCGICFPS
GATA2
  binding: binds
